Test results reported in the supplement of paper PMC10032668.
The list shows a part of the results. The list holds hits alone, and they repeat only in part.

Chains of the proteins cited; added tags and fusions are not shown.
COIL, P38432, UniProt P38432, whole entry: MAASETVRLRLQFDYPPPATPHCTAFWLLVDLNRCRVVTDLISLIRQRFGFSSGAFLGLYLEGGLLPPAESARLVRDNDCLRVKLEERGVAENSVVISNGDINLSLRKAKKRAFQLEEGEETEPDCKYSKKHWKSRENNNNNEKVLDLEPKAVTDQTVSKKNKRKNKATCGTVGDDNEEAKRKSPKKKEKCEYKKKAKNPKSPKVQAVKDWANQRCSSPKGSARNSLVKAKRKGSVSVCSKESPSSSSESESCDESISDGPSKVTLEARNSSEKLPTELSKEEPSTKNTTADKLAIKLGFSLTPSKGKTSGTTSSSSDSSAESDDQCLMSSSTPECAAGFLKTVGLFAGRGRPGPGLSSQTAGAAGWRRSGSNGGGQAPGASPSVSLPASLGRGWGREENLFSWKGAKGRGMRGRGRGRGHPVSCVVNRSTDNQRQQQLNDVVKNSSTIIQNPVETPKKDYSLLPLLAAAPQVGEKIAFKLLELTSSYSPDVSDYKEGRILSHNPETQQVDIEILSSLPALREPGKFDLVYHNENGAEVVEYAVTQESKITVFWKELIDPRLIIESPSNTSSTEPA
NDUFS6, O75380, UniProt O75380, whole entry: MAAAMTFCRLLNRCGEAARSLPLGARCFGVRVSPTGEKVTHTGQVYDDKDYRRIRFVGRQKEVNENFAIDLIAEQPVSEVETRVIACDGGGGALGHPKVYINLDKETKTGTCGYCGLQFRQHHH
PHF3, Q92576, UniProt Q92576, whole entry: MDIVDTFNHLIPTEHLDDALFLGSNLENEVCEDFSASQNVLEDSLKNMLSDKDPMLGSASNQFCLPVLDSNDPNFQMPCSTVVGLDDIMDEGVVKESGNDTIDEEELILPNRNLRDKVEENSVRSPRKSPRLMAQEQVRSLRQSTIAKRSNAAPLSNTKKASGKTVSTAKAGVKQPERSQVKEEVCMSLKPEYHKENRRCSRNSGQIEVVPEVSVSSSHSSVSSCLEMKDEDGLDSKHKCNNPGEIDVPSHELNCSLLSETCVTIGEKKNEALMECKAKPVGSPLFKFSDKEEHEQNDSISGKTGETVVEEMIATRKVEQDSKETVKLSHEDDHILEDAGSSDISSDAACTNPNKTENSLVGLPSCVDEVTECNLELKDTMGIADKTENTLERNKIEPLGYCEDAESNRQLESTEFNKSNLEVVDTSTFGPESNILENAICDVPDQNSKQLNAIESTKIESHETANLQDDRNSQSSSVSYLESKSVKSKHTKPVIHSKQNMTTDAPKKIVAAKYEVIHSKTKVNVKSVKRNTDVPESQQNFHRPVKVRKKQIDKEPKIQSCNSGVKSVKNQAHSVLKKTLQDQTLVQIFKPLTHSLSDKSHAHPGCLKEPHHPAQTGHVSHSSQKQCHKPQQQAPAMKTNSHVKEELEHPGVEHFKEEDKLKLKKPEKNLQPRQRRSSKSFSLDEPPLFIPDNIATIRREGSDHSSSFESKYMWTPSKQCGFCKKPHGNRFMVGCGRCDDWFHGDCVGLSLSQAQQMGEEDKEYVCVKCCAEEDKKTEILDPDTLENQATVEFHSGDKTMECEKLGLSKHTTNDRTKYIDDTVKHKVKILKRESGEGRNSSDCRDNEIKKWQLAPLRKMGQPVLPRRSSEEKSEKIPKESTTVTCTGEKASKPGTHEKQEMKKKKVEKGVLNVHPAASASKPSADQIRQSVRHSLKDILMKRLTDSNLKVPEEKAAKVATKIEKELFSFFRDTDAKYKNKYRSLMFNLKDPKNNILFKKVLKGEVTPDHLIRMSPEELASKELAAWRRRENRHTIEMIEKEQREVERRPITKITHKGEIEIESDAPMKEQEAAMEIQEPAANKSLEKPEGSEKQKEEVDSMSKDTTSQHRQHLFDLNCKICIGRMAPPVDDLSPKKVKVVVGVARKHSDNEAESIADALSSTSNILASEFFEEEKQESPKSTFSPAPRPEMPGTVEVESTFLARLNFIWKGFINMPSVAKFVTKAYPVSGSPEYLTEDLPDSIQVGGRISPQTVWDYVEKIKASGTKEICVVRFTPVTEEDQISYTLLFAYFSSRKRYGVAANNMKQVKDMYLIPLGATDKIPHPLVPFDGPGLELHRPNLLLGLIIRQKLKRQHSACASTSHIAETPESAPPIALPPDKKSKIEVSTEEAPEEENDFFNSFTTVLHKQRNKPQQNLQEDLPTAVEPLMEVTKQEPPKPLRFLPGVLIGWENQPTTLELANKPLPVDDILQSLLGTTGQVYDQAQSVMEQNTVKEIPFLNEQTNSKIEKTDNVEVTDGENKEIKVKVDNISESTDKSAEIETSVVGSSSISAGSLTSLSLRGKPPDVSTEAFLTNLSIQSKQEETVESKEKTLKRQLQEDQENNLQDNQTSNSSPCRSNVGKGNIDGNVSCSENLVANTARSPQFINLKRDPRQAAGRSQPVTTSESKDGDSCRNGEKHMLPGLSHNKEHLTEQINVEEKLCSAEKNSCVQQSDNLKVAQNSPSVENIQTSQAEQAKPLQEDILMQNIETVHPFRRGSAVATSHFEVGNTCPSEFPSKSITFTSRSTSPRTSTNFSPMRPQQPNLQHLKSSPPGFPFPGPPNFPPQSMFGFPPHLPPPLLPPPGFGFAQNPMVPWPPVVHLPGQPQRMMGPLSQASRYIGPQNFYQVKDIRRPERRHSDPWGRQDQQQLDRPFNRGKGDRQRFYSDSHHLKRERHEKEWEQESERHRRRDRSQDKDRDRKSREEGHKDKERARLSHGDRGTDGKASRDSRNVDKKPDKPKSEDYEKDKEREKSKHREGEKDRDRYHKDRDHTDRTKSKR
YBX3, P16989, UniProt P16989, whole entry: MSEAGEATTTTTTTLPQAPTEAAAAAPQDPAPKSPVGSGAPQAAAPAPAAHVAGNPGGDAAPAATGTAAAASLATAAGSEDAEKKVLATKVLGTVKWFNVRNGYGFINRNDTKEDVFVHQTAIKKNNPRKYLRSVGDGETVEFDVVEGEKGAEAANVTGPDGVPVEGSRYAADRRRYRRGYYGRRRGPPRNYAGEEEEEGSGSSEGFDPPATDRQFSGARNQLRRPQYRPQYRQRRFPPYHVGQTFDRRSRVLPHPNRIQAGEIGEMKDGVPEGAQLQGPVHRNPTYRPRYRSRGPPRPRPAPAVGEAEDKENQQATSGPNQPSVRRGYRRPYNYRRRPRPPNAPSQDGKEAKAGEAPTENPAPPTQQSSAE
EIF2B4, Q9UI10, UniProt Q9UI10, whole entry: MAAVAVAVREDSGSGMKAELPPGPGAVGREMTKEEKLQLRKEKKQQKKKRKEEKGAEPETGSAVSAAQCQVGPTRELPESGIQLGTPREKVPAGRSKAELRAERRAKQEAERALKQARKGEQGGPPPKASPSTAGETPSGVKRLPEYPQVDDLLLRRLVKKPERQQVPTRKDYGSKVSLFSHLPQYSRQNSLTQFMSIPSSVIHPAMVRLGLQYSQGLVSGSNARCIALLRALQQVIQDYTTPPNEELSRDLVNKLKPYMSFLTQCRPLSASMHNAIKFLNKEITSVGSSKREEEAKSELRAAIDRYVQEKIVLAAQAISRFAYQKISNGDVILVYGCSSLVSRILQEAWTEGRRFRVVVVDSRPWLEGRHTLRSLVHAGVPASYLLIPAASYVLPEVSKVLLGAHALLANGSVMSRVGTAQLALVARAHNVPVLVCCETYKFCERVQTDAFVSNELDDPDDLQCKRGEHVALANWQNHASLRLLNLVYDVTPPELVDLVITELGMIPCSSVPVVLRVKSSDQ
NDUFB5, O43674, UniProt O43674, whole entry: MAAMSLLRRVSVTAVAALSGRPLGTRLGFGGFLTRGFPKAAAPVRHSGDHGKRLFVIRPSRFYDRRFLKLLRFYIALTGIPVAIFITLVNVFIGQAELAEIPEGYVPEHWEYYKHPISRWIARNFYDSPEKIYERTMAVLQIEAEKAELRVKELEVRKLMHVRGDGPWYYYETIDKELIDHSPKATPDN
COX7A2, P14406, UniProt P14406, whole entry: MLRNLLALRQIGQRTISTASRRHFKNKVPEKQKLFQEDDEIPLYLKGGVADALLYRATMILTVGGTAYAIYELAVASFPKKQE
FLNB, O75369, UniProt O75369, whole entry: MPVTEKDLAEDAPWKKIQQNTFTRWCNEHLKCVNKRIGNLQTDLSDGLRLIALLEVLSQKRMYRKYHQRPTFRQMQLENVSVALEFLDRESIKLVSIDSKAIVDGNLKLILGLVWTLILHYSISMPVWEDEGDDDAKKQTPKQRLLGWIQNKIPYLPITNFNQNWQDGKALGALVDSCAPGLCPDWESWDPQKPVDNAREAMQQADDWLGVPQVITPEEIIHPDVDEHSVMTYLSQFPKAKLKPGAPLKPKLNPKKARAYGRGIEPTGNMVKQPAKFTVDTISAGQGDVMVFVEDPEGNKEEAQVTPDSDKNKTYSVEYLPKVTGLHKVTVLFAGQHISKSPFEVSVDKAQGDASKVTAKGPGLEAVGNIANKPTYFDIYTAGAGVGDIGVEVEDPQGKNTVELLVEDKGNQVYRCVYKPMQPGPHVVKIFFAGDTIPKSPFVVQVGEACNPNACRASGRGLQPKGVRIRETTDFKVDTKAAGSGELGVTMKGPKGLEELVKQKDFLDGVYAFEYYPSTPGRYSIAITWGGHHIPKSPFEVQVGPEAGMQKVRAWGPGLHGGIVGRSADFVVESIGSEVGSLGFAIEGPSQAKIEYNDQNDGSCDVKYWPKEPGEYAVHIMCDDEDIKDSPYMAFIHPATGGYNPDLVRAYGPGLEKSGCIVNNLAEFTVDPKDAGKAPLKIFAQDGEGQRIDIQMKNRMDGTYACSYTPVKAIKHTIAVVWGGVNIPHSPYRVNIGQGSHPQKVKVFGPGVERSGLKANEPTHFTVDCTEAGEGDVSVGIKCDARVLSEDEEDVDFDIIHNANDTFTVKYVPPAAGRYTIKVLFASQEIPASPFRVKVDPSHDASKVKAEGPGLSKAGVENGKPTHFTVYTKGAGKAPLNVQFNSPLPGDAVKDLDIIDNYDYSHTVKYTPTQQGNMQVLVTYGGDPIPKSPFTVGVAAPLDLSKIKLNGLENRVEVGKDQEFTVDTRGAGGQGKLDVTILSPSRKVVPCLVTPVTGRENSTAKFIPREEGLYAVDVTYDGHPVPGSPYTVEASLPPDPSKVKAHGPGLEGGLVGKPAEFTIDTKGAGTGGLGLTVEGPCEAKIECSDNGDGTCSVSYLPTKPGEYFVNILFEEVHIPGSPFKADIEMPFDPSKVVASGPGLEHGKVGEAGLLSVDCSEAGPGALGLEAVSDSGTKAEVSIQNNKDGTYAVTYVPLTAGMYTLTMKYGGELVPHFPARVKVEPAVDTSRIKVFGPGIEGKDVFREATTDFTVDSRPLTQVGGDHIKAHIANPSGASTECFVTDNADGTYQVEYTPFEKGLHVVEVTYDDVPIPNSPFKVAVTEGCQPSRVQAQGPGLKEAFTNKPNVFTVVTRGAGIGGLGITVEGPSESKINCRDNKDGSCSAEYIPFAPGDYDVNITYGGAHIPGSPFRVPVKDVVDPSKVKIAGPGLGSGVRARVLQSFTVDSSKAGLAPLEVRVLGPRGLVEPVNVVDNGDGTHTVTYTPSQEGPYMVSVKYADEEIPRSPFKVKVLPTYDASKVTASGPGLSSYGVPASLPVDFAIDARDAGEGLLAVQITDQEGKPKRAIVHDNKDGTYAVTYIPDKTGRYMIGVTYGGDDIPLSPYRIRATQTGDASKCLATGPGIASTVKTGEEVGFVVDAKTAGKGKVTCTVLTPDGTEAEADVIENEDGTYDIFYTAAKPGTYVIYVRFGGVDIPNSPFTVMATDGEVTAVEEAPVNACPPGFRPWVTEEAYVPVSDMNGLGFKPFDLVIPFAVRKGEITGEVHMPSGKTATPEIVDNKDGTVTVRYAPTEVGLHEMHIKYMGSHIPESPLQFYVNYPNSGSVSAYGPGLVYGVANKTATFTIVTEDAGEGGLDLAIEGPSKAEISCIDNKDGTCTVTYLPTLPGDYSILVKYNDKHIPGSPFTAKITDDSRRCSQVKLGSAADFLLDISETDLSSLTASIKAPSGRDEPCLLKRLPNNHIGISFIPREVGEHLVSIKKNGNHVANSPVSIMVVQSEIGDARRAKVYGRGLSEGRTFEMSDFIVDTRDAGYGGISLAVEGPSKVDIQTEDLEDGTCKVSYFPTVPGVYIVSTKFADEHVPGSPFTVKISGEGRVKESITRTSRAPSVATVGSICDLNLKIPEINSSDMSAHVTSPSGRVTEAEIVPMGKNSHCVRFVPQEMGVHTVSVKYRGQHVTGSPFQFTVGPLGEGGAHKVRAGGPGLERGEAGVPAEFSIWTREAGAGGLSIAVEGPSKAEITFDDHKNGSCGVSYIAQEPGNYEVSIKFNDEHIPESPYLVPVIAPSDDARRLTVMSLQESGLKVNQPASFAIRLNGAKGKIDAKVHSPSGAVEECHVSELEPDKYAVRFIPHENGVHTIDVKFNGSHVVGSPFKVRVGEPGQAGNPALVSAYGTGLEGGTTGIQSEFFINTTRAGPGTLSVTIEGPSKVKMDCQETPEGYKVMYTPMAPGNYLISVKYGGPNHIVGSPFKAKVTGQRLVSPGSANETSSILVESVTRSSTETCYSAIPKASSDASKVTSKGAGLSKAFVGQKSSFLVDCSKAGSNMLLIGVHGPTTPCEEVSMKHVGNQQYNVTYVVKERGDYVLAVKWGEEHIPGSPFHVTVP

Key:
Assay in all cases: PRISMA enrichment of interactor (LFQ) in peptide spot vs all other peptide spots (log2 fold change); higher = stronger / more specific binding of the interactor to the peptide
[1] = target: AKAP1, Q92667
Experimental: (§1)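 PRISMA: 15-aa overlapping tiles (offset 8 aa) of 60 microproteins, plus SOS1/GLUT1 control peptides, were spot-synthesized on cellulose membranes in triplicate. Membranes were incubated with benzonase-treated HEK293T lysate, and bound proteins were identified by LC-MS/MS with LFQ. Enrichment is the log2 fold change of each protein in one spot versus all other spots. Only interactors passing the significance cutoff are listed.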

[2] = target: ARCN1, P48444
Experimental: as §1

[3] = target: ARFGEF1, Q9Y6D6
Experimental: as §1

[4] = target: BASP1, P80723
Experimental: as §1

[5] = target: CDKN2AIP, Q9NXV6
Experimental: as §1

[6] = target: CEP290, O15078
Experimental: as §1

[7] = target: COIL, P38432
Experimental: as §1

[8] = target: DDX1, Q92499
Experimental: as §1

[9] = target: DFFA, O00273
Experimental: as §1

[10] = target: DIS3, Q9Y2L1
Experimental: as §1

[11] = target: FAM207A, Q9NSI2
Experimental: as §1

[12] = target: GSTK1, Q9Y2Q3
Experimental: as §1

[13] = target: HNRNPL, P14866
Experimental: as §1

[14] = target: HNRNPUL1, Q9BUJ2
Experimental: as §1

[15] = target: HTATSF1, O43719
Experimental: as §1

[16] = target: MRPL14, Q6P1L8
Experimental: as §1

[17] = target: MRPL19, P49406
Experimental: as §1

[18] = target: NDUFS6, O75380
Experimental: as §1

[19] = target: NOC2L, Q9Y3T9
Experimental: as §1

[20] = target: NUP133, Q8WUM0
Experimental: as §1

[21] = target: PACSIN2, Q9UNF0
Experimental: as §1

[22] = target: PAXBP1, Q9Y5B6
Experimental: as §1

[23] = target: PBK, Q96KB5
Experimental: as §1

[24] = target: PHF3, Q92576
Experimental: as §1

[25] = target: PLS3, P13797
Experimental: as §1

[26] = target: RANBP3, Q9H6Z4
Experimental: as §1

[27] = target: RBM15, Q96T37
Experimental: as §1

[28] = target: RBX1, P62877
Experimental: as §1

[29] = target: SCAF11, Q99590
Experimental: as §1

[30] = target: SEC24B, O95487
Experimental: as §1

[31] = target: SLC25A33, Q9BSK2
Experimental: as §1

[32] = target: SPOUT1, Q5T280
Experimental: as §1

[33] = target: TUBGCP3, Q96CW5
Experimental: as §1

[34] = target: UBA1, P22314
Experimental: as §1

[35] = target: VPS52, Q8N1B4
Experimental: as §1

[36] = target: YBX3, P16989
Experimental: as §1

[37] = target: ZMYM4, Q5VZL5
Experimental: as §1

[38] = target: AKAP17A, Q02040
Experimental: as §1

[39] = target: CCAR1, Q8IX12
Experimental: as §1

[40] = target: CCDC86, Q9H6F5
Experimental: as §1

[41] = target: CLSPN, Q9HAW4
Experimental: as §1

[42] = target: DDX19A, Q9NUU7
Experimental: as §1

[43] = target: EIF2B4, Q9UI10
Experimental: as §1

[44] = target: EIF2B5, Q13144
Experimental: as §1

[45] = target: HSPBP1, Q9NZL4
Experimental: as §1

[46] = target: LEO1, Q8WVC0
Experimental: as §1

[47] = target: MAT1A, Q00266
Experimental: as §1

[48] = target: MED23, Q9ULK4
Experimental: as §1

[49] = target: MOV10, Q9HCE1
Experimental: as §1

[50] = target: MPC2, O95563
Experimental: as §1

[51] = target: NDUFB5, O43674
Experimental: as §1

[52] = target: NOL10, Q9BSC4
Experimental: as §1

[53] = target: PHAX, Q9H814
Experimental: as §1

[54] = target: PPP1R2, P41236
Experimental: as §1

[55] = target: PRDX1, Q06830
Experimental: as §1

[56] = target: APOA1, P02647
Experimental: as §1

[57] = target: ARHGAP19, Q14CB8
Experimental: as §1

[58] = target: ASCC3, Q8N3C0
Experimental: as §1

[59] = target: AURKA, O14965
Experimental: as §1

[60] = target: CC2D1A, Q6P1N0
Experimental: as §1

[61] = target: CCT7, Q99832
Experimental: as §1

[62] = target: CIP2A, Q8TCG1
Experimental: as §1

[63] = target: COX7A2, P14406
Experimental: as §1

[64] = target: CREB1, P16220
Experimental: as §1

[65] = substrate: CS, O75390
Experimental: as §1

[66] = target: CSNK1E, P49674
Experimental: as §1

[67] = target: DDX18, Q9NVP1
Experimental: as §1

[68] = target: DDX50, Q9BQ39
Experimental: as §1

[69] = target: DOCK7, Q96N67
Experimental: as §1

[70] = target: DSG2, Q14126
Experimental: as §1

[71] = target: EIF2B3, Q9NR50
Experimental: as §1

[72] = target: ENSA, O43768
Experimental: as §1

[73] = target: EPB41L3, Q9Y2J2
Experimental: as §1

[74] = target: ERAL1, O75616
Experimental: as §1

[75] = target: FLNB, O75369
Experimental: as §1

[76] = target: FUBP1, Q96AE4
Experimental: as §1

[77] = target: GEMIN7, Q9H840
Experimental: as §1

[78] = target: GLS, O94925
Experimental: as §1

[79] = target: GSTP1, P09211
Experimental: as §1

[80] = target: HNRNPDL, O14979
Experimental: as §1

[81] = target: HP, P00738
Experimental: as §1

[82] = target: KLF16, Q9BXK1
Experimental: as §1

[83] = target: MACF1
Experimental: as §1

## ELPDYRQWKIEGTPL [NDUFB3]
[1]
  PRISMA enrichment of interactor (log2): 5.48
[2]
  PRISMA enrichment of interactor (log2): 6.09
[3]
  PRISMA enrichment of interactor (log2): 4.35
[4]
  PRISMA enrichment of interactor (log2): 4.17
[5]
  PRISMA enrichment of interactor (log2): 4.72
[6]
  PRISMA enrichment of interactor (log2): 5.69
[7]
  PRISMA enrichment of interactor (log2): 6.19
[8]
  PRISMA enrichment of interactor (log2): 7.25
[9]
  PRISMA enrichment of interactor (log2): 4.28
[10]
  PRISMA enrichment of interactor (log2): 14.1
[11]
  PRISMA enrichment of interactor (log2): 7.22
[12]
  PRISMA enrichment of interactor (log2): 6.94
[13]
  PRISMA enrichment of interactor (log2): 4.64
[14]
  PRISMA enrichment of interactor (log2): 4.3
[15]
  PRISMA enrichment of interactor (log2): 5.54
[16]
  PRISMA enrichment of interactor (log2): 4.42
[17]
  PRISMA enrichment of interactor (log2): 5.46
[18]
  PRISMA enrichment of interactor (log2): 4.54
[19]
  PRISMA enrichment of interactor (log2): 5
[20]
  PRISMA enrichment of interactor (log2): 5.36
[21]
  PRISMA enrichment of interactor (log2): 4.97
[22]
  PRISMA enrichment of interactor (log2): 4.78
[23]
  PRISMA enrichment of interactor (log2): 4.47
[24]
  PRISMA enrichment of interactor (log2): 7.82
[25]
  PRISMA enrichment of interactor (log2): 8.29
[26]
  PRISMA enrichment of interactor (log2): 5.2
[27]
  PRISMA enrichment of interactor (log2): 4.54
[28]
  PRISMA enrichment of interactor (log2): 4.14
[29]
  PRISMA enrichment of interactor (log2): 4.13
[30]
  PRISMA enrichment of interactor (log2): 4.39
[31]
  PRISMA enrichment of interactor (log2): 5.9
[32]
  PRISMA enrichment of interactor (log2): 7.15
[33]
  PRISMA enrichment of interactor (log2): 4.31
[34]
  PRISMA enrichment of interactor (log2): 5.15
[35]
  PRISMA enrichment of interactor (log2): 7.78
[36]
  PRISMA enrichment of interactor (log2): 5.38
[37]
  PRISMA enrichment of interactor (log2): 6

## LPERVHEVFRVGKLR [CUL5]
[38]
  PRISMA enrichment of interactor (log2): 4.26
[39]
  PRISMA enrichment of interactor (log2): 4.77
[40]
  PRISMA enrichment of interactor (log2): 5.4
[41]
  PRISMA enrichment of interactor (log2): 4.69
[42]
  PRISMA enrichment of interactor (log2): 6.76
[43]
  PRISMA enrichment of interactor (log2): 5.01
[44]
  PRISMA enrichment of interactor (log2): 5.25
[45]
  PRISMA enrichment of interactor (log2): 7.16
[46]
  PRISMA enrichment of interactor (log2): 5.44
[47]
  PRISMA enrichment of interactor (log2): 5.4
[48]
  PRISMA enrichment of interactor (log2): 5.39
[49]
  PRISMA enrichment of interactor (log2): 4.66
[50]
  PRISMA enrichment of interactor (log2): 4.1
[51]
  PRISMA enrichment of interactor (log2): 4.62
[19]
  PRISMA enrichment of interactor (log2): 4.66
[52]
  PRISMA enrichment of interactor (log2): 5.33
[53]
  PRISMA enrichment of interactor (log2): 4.34
[54]
  PRISMA enrichment of interactor (log2): 4.46
[55]
  PRISMA enrichment of interactor (log2): 7.96

## PALCGHLISTGLGKQ [RP11-432J24.5_2]
[38]
  PRISMA enrichment of interactor (log2): 7.86
[56]
  PRISMA enrichment of interactor (log2): 4.1
[57]
  PRISMA enrichment of interactor (log2): 4.82
[58]
  PRISMA enrichment of interactor (log2): 5.32
[59]
  PRISMA enrichment of interactor (log2): 4.76
[60]
  PRISMA enrichment of interactor (log2): 6.83
[61]
  PRISMA enrichment of interactor (log2): 4.88
[62]
  PRISMA enrichment of interactor (log2): 8.01
[63]
  PRISMA enrichment of interactor (log2): 6.5
[64]
  PRISMA enrichment of interactor (log2): 4.26
[65]
  PRISMA enrichment of interactor (log2): 4.02
[66]
  PRISMA enrichment of interactor (log2): 4.98
[67]
  PRISMA enrichment of interactor (log2): 4.77
[68]
  PRISMA enrichment of interactor (log2): 4.47
[69]
  PRISMA enrichment of interactor (log2): 4.15
[70]
  PRISMA enrichment of interactor (log2): 4.96
[71]
  PRISMA enrichment of interactor (log2): 6.94
[44]
  PRISMA enrichment of interactor (log2): 4.6
[72]
  PRISMA enrichment of interactor (log2): 6.59
[73]
  PRISMA enrichment of interactor (log2): 4.74
[74]
  PRISMA enrichment of interactor (log2): 5.8
[75]
  PRISMA enrichment of interactor (log2): 5.2
[76]
  PRISMA enrichment of interactor (log2): 5.69
[77]
  PRISMA enrichment of interactor (log2): 7.17
[78]
  PRISMA enrichment of interactor (log2): 4.46
[79]
  PRISMA enrichment of interactor (log2): 6.33
[80]
  PRISMA enrichment of interactor (log2): 4.9
[81]
  PRISMA enrichment of interactor (log2): 9.78
[82]
  PRISMA enrichment of interactor (log2): 4.1
[83]
  PRISMA enrichment of interactor (log2): 7.19
